Some results were stated once for a whole list of compounds, not compound by compound.
Tested on: intracerebral 2-AG and AA
Assay: Measurement of intracerebral 2-AG and AA
Conditions: C57BL/6J mice, cerebrum 1 hr after gavage, 10 mg/kg (compounds 1, 3, 4) or 30 mg/kg (compound 2); change vs control group as 1

Row | Structure (SMILES) | effect to decrease AA (FIG. 2) | effect to increase 2-AG (FIG. 1)
1 | O=C(c1nccs1)N1CCN([C@@H]2CC(=O)N(c3ccc4c(cnn4-c4ccc(F)cc4)c3)C2)CC1 [compound 2, (4R)-1-(1-(4-fluorophenyl)-1H-indazol-5-yl)-4-(4-(1,3-thiazol-2-ylcarbonyl)piperazin-1-yl)pyrrolidin-2-one] | decrease AA | increase 2-AG
2 | Cc1ncccc1-c1cc(F)cc(N2C[C@H](N3CCN(c4ncccn4)CC3)CC2=O)c1 [compound 4, (4R)-1-(3-Fluoro-5-(2-methylpyridin-3-yl)phenyl)-4-(4-(pyrimidin-2-yl)piperazin-1-yl)pyrrolidin-2-one] | decrease AA | increase 2-AG
